Reference: publication PMC10482377, “Septum site placement in Mycobacteria – identification and characterisation of mycobacterial homologues of Escherichia coli MinD” (Microbiology, 2023)
These are yes or no findings as the source states them, for the method shown. Binding seen in cells or lysates may run through a third protein. Binding can be weak; no strength is given.

The chains behind the UniProt entries cited, without tags or fusion partners. Where a name states a change or a piece, a line headed by the entry shows the natural chain unless it says otherwise.
UniProt A0QYQ4: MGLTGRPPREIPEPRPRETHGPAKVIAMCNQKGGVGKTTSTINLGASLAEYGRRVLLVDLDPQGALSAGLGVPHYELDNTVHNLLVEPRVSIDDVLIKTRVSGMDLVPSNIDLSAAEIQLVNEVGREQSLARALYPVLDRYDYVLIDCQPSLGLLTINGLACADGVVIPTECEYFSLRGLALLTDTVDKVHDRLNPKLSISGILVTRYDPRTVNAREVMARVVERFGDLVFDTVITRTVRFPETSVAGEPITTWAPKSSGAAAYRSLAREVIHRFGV
UniProt A0R7J3: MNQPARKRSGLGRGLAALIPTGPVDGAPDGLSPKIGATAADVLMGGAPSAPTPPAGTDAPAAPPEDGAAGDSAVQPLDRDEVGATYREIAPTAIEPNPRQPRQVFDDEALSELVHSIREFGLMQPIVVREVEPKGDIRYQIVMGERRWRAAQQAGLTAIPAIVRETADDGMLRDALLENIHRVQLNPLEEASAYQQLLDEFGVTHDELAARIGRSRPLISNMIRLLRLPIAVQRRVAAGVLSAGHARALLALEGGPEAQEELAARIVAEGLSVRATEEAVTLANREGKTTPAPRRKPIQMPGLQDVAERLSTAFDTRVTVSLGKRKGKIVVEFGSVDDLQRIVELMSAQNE

Molecular target: MSMEG_3743 (MPFC bait fusion) (M. smegmatis) (UniProt A0QYQ4)
Assay: split reporter; Mycobacterial Protein Fragment Complementation (MPFC); bait in pUAB400 and prey in pUAB300 co-transformed in M. smegmatis mc2155; growth on plates with 20 µg/ml trimethoprim

“Ms ParB (MSMEG_6938) (MPFC prey fusion) (from UniProt A0R7J3)” was tested, and the binding was “binds”.
